From PubChem BioAssay AID720591 (Broad Institute, 2013)
In all, about 1,200 compounds went through this assay and about 60 (5%) were called active. Another 1% or so got no clear call; they are omitted.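 How the source made its calls: active means Decreasing signal and fitted IC50 at most twice the top valid tested dose; inconclusive means Bad fit or a level curve showing 30 to 70% inhibition; inactive means the rest.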 The list shows a part of the results. Potency and affinity values are given separately.

Sequences of proteins named here, by UniProt entry; tags and fusion partners are left off. A change or cut given only in a name is not applied to a line headed by its entry.
UniProt Q9NXA8: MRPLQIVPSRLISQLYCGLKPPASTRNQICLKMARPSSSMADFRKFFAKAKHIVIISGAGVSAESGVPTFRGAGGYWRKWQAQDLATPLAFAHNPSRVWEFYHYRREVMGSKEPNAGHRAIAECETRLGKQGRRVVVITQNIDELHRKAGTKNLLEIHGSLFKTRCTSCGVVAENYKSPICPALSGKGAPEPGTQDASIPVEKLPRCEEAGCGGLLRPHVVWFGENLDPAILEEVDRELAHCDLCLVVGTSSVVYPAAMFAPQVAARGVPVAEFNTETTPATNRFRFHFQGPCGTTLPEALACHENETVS

target: NAD-dependent protein deacylase sirtuin-5, mitochondrial (Homo sapiens) (UniProt Q9NXA8); assay: sirtuin-5 deacylation blockers, concentration series – biochemical, fluorescence imaging, cherry-pick, set 5, dose response (AID 720591); conditions: Purified SirT5, succinyl-peptide AMC, trypsin-coupled fluorescence; at 15 µM (top of the series) unless noted;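 further: 0% = median of neutral control wells and -100% = median of positive control wells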

Activity change, negative = inhibition, inactive:
Clc1ccccc1OCCNc1nc(NCC2CC2)nc2ccsc12 -1.11%, CCCCc1c(-c2ccccc2F)ncn1CCc1ccccc1OC 13.7%, COCOCCn1cc(CN2CCS(=O)(=O)N(Cc3ccc(-c4ccc(OC)cc4)cc3)C(CC(C)C)C2=O)nn1 (stereo not drawn) 15.5%, CC(C)N1CCN(Cc2cc(F)ccc2-n2cccn2)CC1CCO (stereo not drawn) 7.78%, COC(=O)C(CC(=O)CNC(=O)c1ccccc1)NC(=O)c1ccccc1 (stereo not drawn) 5.64%, CC(C)C(NS(=O)(=O)c1ccc2c(c1)Cc1cc(S(=O)(=O)NC(C(=O)O)C(C)C)ccc1-2)C(=O)O (stereo not drawn) -25.8%, COc1ccc(-c2noc(CN(C)C(=O)c3ccco3)n2)cc1 -8.92%, COc1ccc(CCNS(=O)(=O)c2cc3c4c(c2)C(C)C(=O)N4CCC3)cc1OC (stereo not drawn) -3.5%, O=C(CCS(=O)(=O)Cc1ccccc1)Nc1nncs1 -1.31%, COc1ccc(C)cc1N(C)C(=O)Cc1c(C(=O)O)n(C)c2ccccc12 -31.2%, COCCCNc1nc2ccccc2nc1NS(=O)(=O)c1cccc(C)c1 0.837%, CCCc1cc(=O)oc2cc(C)cc(OCC(=O)NCC(O)c3ccccc3)c12 (stereo not drawn) -7.43%, Cc1ccnc(NC(=O)CCC(=O)N(Cc2ccco2)C(C(=O)NC(C)C)c2ccc(F)cc2)c1 (stereo not drawn) -23.7%, COc1ccccc1CNCC(=O)Nc1ccc(C#N)cc1 -0.398%, CN(C)CCCNC(=O)c1cc(C(=O)c2ccccc2F)c[nH]1 1.08%, O=C(Cc1ccc(F)cc1)OCC(=O)N1CCN(S(=O)(=O)c2ccc(Cl)cc2)CC1 -2.77%, CCCCCCN1C[C@@H](O)[C@H](n2cc(COC(=O)c3ccccc3)nn2)C[C@@H]1c1ccc(C)cc1 11.7%, CCCc1c(C)nc(N2CCN(c3ccc(F)cc3)CC2)[nH]c1=O -20.3%, Cc1c(C)n(C)c2ccc(C(=O)NCCN3CCOCC3)cc12 -21.6%, COc1nc(N2CCOCC2)nc(-n2cccc2)n1 -0.488%, COc1ccc(CCNC(=O)COC(=O)CCC(=O)c2ccc(F)cc2)cc1OC 16.3%, CCOc1cccc(C(=O)NC2CCCCC2)c1 -14.4%, CCCCNC(=O)CN(c1cccc(F)c1)S(C)(=O)=O 18.6%, CCOc1cc(C(=O)OC(C)C(=O)Nc2ccc(S(N)(=O)=O)cc2)ccc1OCC(=O)N1CCOCC1 (stereo not drawn) 3.63%, O=C1NC(Cc2ccc(O)cc2)c2nc3ccc(F)cc3c(=O)n2-c2cc3ccccc3cc21 (stereo not drawn) -27.3%, Clc1ccc2nc(CSc3ccccc3)cn2c1 17%, Cn1cc(C(=O)NCCc2ccccc2)c(=O)c2cc(S(=O)(=O)N3CCOCC3)ccc21 3.07%, NC(=O)CSc1nnc(-c2ccco2)n1-c1ccccc1 -33.6%, COc1ccc([C@H]2CC(=O)C[C@@H](CCn3cc(-c4cccnc4)nn3)O2)cc1 -23.4%, O=C(NCCCn1ccnc1)c1ccc(NS(=O)(=O)c2ccc(Cl)c(Cl)c2)cc1 8.85%, O=S(=O)(c1ccc(F)cc1)c1nc(-c2ccco2)oc1Nc1ccc(F)cc1 -1.22%, CCOC(=O)c1cccc(NC(=O)c2ccc3c(c2)OCO3)c1 -22.1%, CCc1cc2c(=O)c(-c3cnn(-c4ccccc4)c3)c(C)oc2cc1OCC(=O)Nc1cccc(C)c1 10.1%, Cc1ccc(NC(=O)C2CC(=O)n3ncnc3N2)cc1C (stereo not drawn) -28.3%, Cc1ccc2nc(NC3=NC(CC(=O)O)C(=O)N3)nc(C)c2c1 (stereo not drawn) 22.2%, COc1ccc(NC(=O)NCCN2CCN(c3cc(OC)ccc3OC)CC2)cc1 2.31%, Cc1nn(-c2ccccc2)c(Cl)c1C(=O)NNC(=O)c1ccccc1O -0.052%, Cc1ccc(CNC(=O)CCc2ccc(S(=O)(=O)NCC(C)C)cc2)cc1 -24.4%, COc1ccc(NC(=O)C2=CC=CN3CCS(=O)(=O)N=C23)c(OC)c1 -34.1%, OC(COc1ccc(Br)cc1)CN1CCC(Cc2ccccc2)CC1 (stereo not drawn) -2.68%, N#Cc1ccc(C(=O)OCC(=O)N2CCN(C(=O)c3ccco3)CC2)cc1 24.8%, Cc1cc(NC(=O)CCC(=O)N(Cc2ccco2)C(C(=O)NC2CCCC2)c2ccccc2)no1 (stereo not drawn) 8.61%, O=C(Nc1ccccc1C(=O)N1CCOCC1)c1cc2ccccc2o1 -3.3%, COC(=O)c1ccc([C@@H](O)[C@H](C)C(=O)CC(=O)OC(C)(C)C)cc1 -32%, CN(C(=O)CC1C(=O)NCCN1Cc1ccccc1C(F)(F)F)C1CCOCC1 (stereo not drawn) 7.04%, CC(C)(C)Cc1nnc(NC(=O)Cc2cccs2)s1 14.6%, COc1ccc(C(=O)OCCN2CCCCC2)cc1 -12%, CCOC(=O)c1sc2nc(OCc3cccnc3)cc(C)c2c1N 7.5%, CCN(c1ccccc1)S(=O)(=O)c1ccc(OC)c(NC(=O)Cc2ccccc2OC)c1 14.9%, CCCCCCN1C[C@@H](n2cc(C3CC3)nn2)[C@H](O)C[C@@H]1c1ccc(OC)cc1 -37.2%, CCCNC(=O)CN(c1cccc(F)c1)S(C)(=O)=O -1.82%, Nn1c(C2CCC2)nc2cc(Cl)ccc2c1=O -25.2%, Cc1ccc(NC(=O)Cn2sc3ccccc3c2=O)cc1 -30.7%, O=C(NCCN1CCOCC1)C1CCC(CNS(=O)(=O)c2ccc(Cl)cc2)CC1 (stereo not drawn) -17.8%, Cn1c(N)c(C(=O)CSc2nnc(C3CC3)n2N)c(=O)n(C)c1=O -22.5%, O=C(Nc1ccc(N2CCN(C(=O)c3ccco3)CC2)cc1)c1ccccc1 15.6%, Cc1ccc(S(=O)(=O)N2C[C@H]3[C@H]4C(=O)N(c5ccccc5)C(=O)[C@H]4C[C@H](OC(=O)NCc4ccccc4)[C@@]3(O)C2)cc1 -30.1%, O=S(=O)(Cc1ccccc1)c1nc2ccccc2n1Cc1ccccn1 -27.5%, O=C1N[C@@H](Cc2ccccc2)[C@@H](c2ccco2)O1 4.45%, COc1ccccc1N1CCN(c2ncnc3sc(C(=O)NCC4CCCO4)c(C)c23)CC1 (stereo not drawn) 3.81%, Cc1cccc(N(C(=O)c2snc(C(N)=O)c2N)C(C(=O)NCC2CCCO2)c2ccc3ncccc3c2)c1 (stereo not drawn) 4.66%, Cc1cc(OCC(O)CNC(C)(C)C)ccc1Cl (stereo not drawn) 3.37%, Cc1ccc2cc(CN(Cc3ccc(F)cc3)Cc3nnnn3C3CCCC3)c(=O)[nH]c2c1 6.37%, CN(CC(=O)Nc1ccc(S(N)(=O)=O)cc1)Cc1ccccc1F 18.9%, CSc1nc(N)nc2c1ncn2CC(=O)NCc1ccc2c(c1)OCO2 -33.5%, CCOC(=O)C1CCN(C(=O)Cn2cc(C(=O)OC)c3ccccc32)CC1 -21.2%, Cc1nn(CC(=O)NCCCN2CCC(Cc3ccccc3)CC2)c(=O)c2cc(-c3ccccc3)nn12 4.5%, CC(C)(C)S(=O)N1Cc2cc(=O)n(Cc3ccccc3)c(CCO)c2[C@H]1CCO (stereo partly drawn) 8.68%, COc1ccccc1NC(=O)CN1CCN(C(=O)C2CCCO2)CC1 (stereo not drawn) 8.13%, O=C(O)CCCC(=O)Nc1ccccc1C(=O)N1CCOCC1 -26.4%, CC(C)c1ccc(NC2CCCN(C(=O)CC3CCCC3)C2)cc1 (stereo not drawn) 20.8%, CN1CCN(c2nc3c(c(=O)n(C)c(=O)n3C)n2Cc2ccccc2)CC1 10.6%, CCC(C)[C@H]1CN=C(N)N1CCCc1cc(OC)c(OC)c(OC)c1 (stereo partly drawn) -23.2%, Cc1ccc(CN2CCN(Cc3cnn(-c4ccc(Cl)cc4)c3)CC2CCO)o1 (stereo not drawn) 18.4%, Cc1ccc(S(=O)(=O)NC(=O)Nc2ccc(Cl)cn2)cc1 -14.3%, O=C(Cn1cnc2c(NCc3ccccc3)ncnc21)NCc1ccc2c(c1)OCO2 -13%, Cc1ccc(C(C(=O)NC2CCCC2)N(Cc2ccco2)C(=O)CCC(=O)Nc2cc(C)on2)cc1 (stereo not drawn) -17%, Cc1occc1C(=O)N(C)CC1CCCN(CCc2ccccc2F)C1 (stereo not drawn) -31.8%, C[C@@H](CSc1ccc(Br)cc1)CN1CC[C@H](NC(=O)OCc2ccccc2)CCC1=O 21.5%, Cn1c(=O)c2c(nc(OCCc3ccccc3)n2C)n(C)c1=O -26.2%, COc1ccc(CN(C(=O)Cn2nnc(-c3ccc(C)o3)n2)C(C(=O)NCC2CCCO2)c2ccco2)cc1 (stereo not drawn) -16.3%, CC(=O)N1CCN(c2ccccc2NC(=O)c2ccc(Br)o2)CC1 23.7%, COc1ccc(C(C)C)cc1S(=O)(=O)n1ccnc1C -21.8%, Cc1cc(NC(=O)CCC(=O)N(Cc2ccco2)C(C(=O)NC2CCCC2)c2ccccc2C)no1 (stereo not drawn) -14.6%, COc1ccc(CC(=O)Nc2cc(S(=O)(=O)Nc3ccc(OC)cc3)ccc2OC)cc1 -31.7%, CCOc1cccc(=O)c2c(C)n(-c3ccc(C(=O)O)cc3)c(C)c12 -31.8%, Cc1cc(-c2nc(C)c(-c3nnc(SCC(=O)Nc4ccc(Cl)cc4)n3C)s2)no1 18.5%, Cn1c(SCc2ccc(C#N)cc2)nnc1-c1ccccc1 -13.4%
